# Results taken from patent US10689628B2, “Method of making variant LovD polypeptides” (THE REGENTS OF THE UNIVERSITY OF CALIFORNIA, priority 2009, dated 2020).
# Read-outs that look alike come from different tables or passages of the source.
# B1: wild type LovD: A. terreus LovD acyltransferase polypeptide, SEQ ID NO: 1 (protein, listed as Aspergillus terreus)
# chain: MGSIIDAAAAADPVVLMETAFRKAVKSRQIPGAVIMARDCSGNLNYTRCFGARTVRRDECNQLPPLQVDTPCRLASATKLLTTIMALQCMERGLVDLDETVDRLLPDLSAMPVLEGFDDAGNARLRERRGKITLRHLLTHTSGLSYVFLHPLLREYMAQGHLQSAEKFGIQSRLAPPAVNDPGAEWIYGANLDWAGKLVERATGLDLEQYLQENICAPLGITDMTFKLQQRPDMLARRADQTHRNSADGRLRYDDSVYFRADGEECFGGQGVFSGPGSYMKVLHSLLKRDGLLLQPQTVDLMFQPALEPRLEEQMNQHMDASPHINYGGPMPMVLRRSFGLGGIIALEDLDGENWRRKGSLTFGGGPNIVWQIDPKAGLCTLAFFQLEPWNDPVCRDLTRTFEHAIYAQYQQG
molecule,measurement,setting,value
B1,LovD Concentration,F1 fed-batch high density,1500 mg/L
same,LovD Concentration,F1 low density,34 mg/L
same,LovD Concentration,LB low density,96 mg/L
same,LovD Concentration,TB high density,980 mg/L
